From patent US9464097B2, “Gold complexes” (UNIVERSITY COURT OF THE UNIVERSITY OF ST. ANDREWS, priority 2010, dated 2016) come the findings set out here.

Each structure is given as a SMILES string.

This assay relates to MDA MB231 (breast carcinoma) cell line. The assay is described as follows: Cytotoxicity assay (CCK-8 viability), MDA MB231. Conditions: MDA MB231, 3 days incubation. Format: cell-based, human. Here is the method: Cytotoxicity assay: The compound/complex was dissolved in DMSO and diluted in DMSO. The final dilution was in the respective culture medium and the final concentration of DMSO was always below 0.01%. Cells were pipetted into microtitre plates (NUNC) at 4000 cells/well and incubated at 37° C. in 5% CO2 in air for 24 hr. Varying concentrations of the compounds/complexes were applied to the cells in 10 μl volumes. The plates were incubated for 3 days at 37° C. 5% CO2 in air. The viability of the cells was measured using the Dojindo kit CCK-8 (Cell counting Kit—8, Dojindo technologies USA, CK04-11) method after incubation for 3 hr in the absence of light. The plates were read on an ELISA plate reader at a wavelength of 450 nm.

As usually defined, the IC50 is the concentration at which inhibition is half-maximal. A higher IC50 goes with a need for much substance. `N.N.[Cl][Pt][Cl]` [cisplatin] displayed an IC50 of 28 µM.
